The text below walks through data of paper PMC5691892.

The chains behind the UniProt entries cited, without tags or fusion partners.
UniProt Q13191: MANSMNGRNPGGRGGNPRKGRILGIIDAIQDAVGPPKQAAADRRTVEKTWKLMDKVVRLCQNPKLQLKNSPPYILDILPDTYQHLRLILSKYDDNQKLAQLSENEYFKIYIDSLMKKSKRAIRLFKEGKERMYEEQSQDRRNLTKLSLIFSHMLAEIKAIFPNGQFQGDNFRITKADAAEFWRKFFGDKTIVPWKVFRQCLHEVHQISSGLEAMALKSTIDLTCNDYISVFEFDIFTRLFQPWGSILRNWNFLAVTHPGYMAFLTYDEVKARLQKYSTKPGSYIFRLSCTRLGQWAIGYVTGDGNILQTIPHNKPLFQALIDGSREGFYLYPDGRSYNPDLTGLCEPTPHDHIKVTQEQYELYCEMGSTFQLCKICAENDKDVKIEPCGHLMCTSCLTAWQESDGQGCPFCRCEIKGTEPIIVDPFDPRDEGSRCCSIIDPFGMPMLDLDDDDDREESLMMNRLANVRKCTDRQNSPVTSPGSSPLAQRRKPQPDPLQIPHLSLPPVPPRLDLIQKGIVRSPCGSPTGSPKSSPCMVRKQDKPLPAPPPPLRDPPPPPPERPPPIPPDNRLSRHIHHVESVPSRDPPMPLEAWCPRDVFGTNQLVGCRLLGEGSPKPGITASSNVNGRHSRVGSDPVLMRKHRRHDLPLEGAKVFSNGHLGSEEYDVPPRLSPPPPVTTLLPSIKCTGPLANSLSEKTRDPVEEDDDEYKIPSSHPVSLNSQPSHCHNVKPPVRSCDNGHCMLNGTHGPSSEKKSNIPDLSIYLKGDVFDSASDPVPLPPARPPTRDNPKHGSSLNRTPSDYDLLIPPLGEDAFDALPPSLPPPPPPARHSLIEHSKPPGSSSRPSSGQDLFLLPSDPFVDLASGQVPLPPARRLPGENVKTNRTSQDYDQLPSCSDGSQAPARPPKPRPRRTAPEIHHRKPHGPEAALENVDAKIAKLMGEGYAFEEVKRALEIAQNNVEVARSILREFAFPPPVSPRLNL

For this test, the target named is Human Cbl-b (ectopically expressed) (human) (UniProt Q13191). Description: co-IP; ectopically expressed proteins in Jurkat cells (WT, CBLB knockdown clone sh1, or VAV1-/- cells expressing Vav1 proteins), 36 hr after electroporation; lysis in 10 mM Tris-HCl pH 8.0, 150 mM NaCl, 1% Triton X-100; 2 hr at 4°C with antibodies to Cbl-b or ICN1, Gammabind G-Sepharose; immunoblot.

Numbering of substitutions follows the chain as printed. In names and notes the source's numbering stands. Results are given in words; binding and its absence hold for the method and conditions named. In cells and extracts the contact can be indirect. Some binding calls cover weakened binding; strength is not graded here.

B1: Mouse Vav1^WT (ectopically expressed) (protein, UniProt P27870 1-845)
chain: MELWRQCTHWLIQCRVLPPSHRVTWEGAQVCELAQALRDGVLLCQLLNNLLPQAINLREVNLRPQMSQFLCLKNIRTFLSTCCEKFGLKRSELFEAFDLFDVQDFGKVIYTLSALSWTPIAQNKGIMPFPTEDSALNDEDIYSGLSDQIDDTAEEDEDLYDCVENEEAEGDEIYEDLMRLESVPTPPKMTEYDKRCCCLREIQQTEEKYTDTLGSIQQHFMKPLQRFLKPQDMETIFVNIEELFSVHTHFLKELKDALAGPGATTLYQVFIKYKERFLVYGRYCSQVESASKHLDQVATAREDVQMKLEECSQRANNGRFTLRDLLMVPMQRVLKYHLLLQELVKHTQDATEKENLRLALDAMRDLAQCVNEVKRDNETLRQITNFQLSIENLDQSLANYGRPKIDGELKITSVERRSKTDRYAFLLDKALLICKRRGDSYDLKASVNLHSFQVRDDSSGERDNKKWSHMFLLIEDQGAQGYELFFKTRELKKKWMEQFEMAISNIYPENATANGHDFQMFSFEETTSCKACQMLLRGTFYQGYRCYRCRAPAHKECLGRVPPCGRHGQDFAGTMKKDKLHRRAQDKKRNELGLPKMEVFQEYYGIPPPPGAFGPFLRLNPGDIVELTKAEAEHNWWEGRNTATNEVGWFPCNRVHPYVHGPPQDLSVHLWYAGPMERAGAEGILTNRSDGTYLVRQRVKDTAEFAISIKYNVEVKHIKIMTSEGLYRITEKKAFRGLLELVEFYQQNSLKDCFKSLDTTLQFPYKEPERRAISKPPAGSTKYFGTAKARYDFCARDRSELSLKEGDIIKILNKKGQQGWWRGEIYGRIGWFPSNYVEEDYSEYC
For the molecule B1, the binding result is “binds”.

B2: Mouse Vav1^G691V (protein, UniProt P27870 1-845)
chain: B1 chain with G691V
In the case of B2, the binding entry is recorded as “binds”.
